Assay results published in patent US11666558B2, “Methods of treating intraocular pressure with activators of Tie-2” (EyePoint Pharmaceuticals, Inc., priority 2015, dated 2023).
Further values from the same series stand in other lists.

Key:
[1] = Plasma concentrations and pharmacokinetic parameters after topical ocular, subcutaneous and intravitreal administration; format: in vivo, New Zealand White rabbits; settings: intravitreal 2.5 mg/eye (~1.54 mg/kg), suspension; 1.0 hr
Method: (§1) To measure the concentration of Compound 1 in plasma and ocular tissues following topical ocular, subcutaneous, and intravitreal administration, New Zealand White rabbits were administered Compound 1, and plasma and ocular samples were collected at pre-determined time points. Compound 1 formulations were prepared fresh on each day of dosing.
New Zealand White rabbits weighing 2.5 to 3.5 kg were used on this study. Rabbits were housed one per cage. Animals were not fasted and only healthy animals with no ocular illness were used. Two rabbits per group were sacrificed at each of four ocular tissue sampling time points for a total of eight rabbits per group. […]
Each blood sample was collected on Day 3 post dose at pre-determined time points from the rabbits via an ear vessel and placed into chilled polypropylene tubes containing sodium heparin as an anticoagulant. […]
An LC-MS/MS method was developed for the determination of Compound 1 in rabbit aqueous tissues (plasma, aqueous and vitreous humor) and solid ocular tissue samples. A pre-study standard curve was analyzed to determine the specificity, range, and lower limit of quantitation of the method. Plasma and tissue homogenate study samples were extracted and analyzed. […]
Pharmacokinetic parameters were calculated from the time course of the plasma concentration. […]

[2] = Ocular tissue concentrations (aqueous humor, vitreous humor, iris, retina, choroid, cornea) after topical ocular, subcutaneous and intravitreal administration; format: in vivo, New Zealand White rabbits; settings: Group 5 intravitreal 2.5 mg per eye; 72 hr
Method: as §1
Ocular tissue samples from both eyes of each animal were collected and weights were recorded. Plasma and ocular tissue sample concentrations of Compound 1 were determined by LC-MS/MS.
New Zealand White rabbits weighing 2.5 to 3.5 kg were used on this study. Rabbits were housed one per cage. Animals were not fasted and only healthy animals with no ocular illness were used. Two rabbits per group were sacrificed at each of four ocular tissue sampling time points for a total of eight rabbits per group.
Animals were anesthetized for ocular (topical) and intravitreal dosing following the 12IA7 IACUC protocol. Each rabbit received a bolus dose of test formulation either via topical ocular administration 3 times daily on Days 1 and 2 (at 0, 6, and 12 hours), and once on Day 3 (at 0 hours) into both eyes; via intravitreal administration into both eyes once on Day 1 (at 0 hours); or via subcutaneous administration 2 times daily on Days 1 and 2 (at 0 and 8 hours) and once daily on Day 3 (at 0 hours). Doses were given within an approximately 1 hour window each day where applicable.
On Day 1, for intravitreal administration, or on Day 3, for topical ocular and subcutaneous administration, at the appropriate ocular tissue collection time points, animals were euthanized and both eyes were enucleated immediately. Following enucleation, each eye was rinsed with phosphate-buffered saline. Ocular tissue samples from both eyes of each animal were collected at predetermined time points and weights were recorded. All the samples were frozen immediately on dry ice, and stored at −60° C. to −80° C. pending bioanalysis.
An LC-MS/MS method was developed for the determination of Compound 1 in rabbit aqueous tissues (plasma, aqueous and vitreous humor) and solid ocular tissue samples. A pre-study standard curve was analyzed to determine the specificity, range, and lower limit of quantitation of the method. Plasma and tissue homogenate study samples were extracted and analyzed. All the samples were treated identically to the standards.
One eight-point standard curve was used in each analytical batch. To be accepted, each batch must have had at least five of eight standards with accuracy within ±20% of nominal, except at the lower limit of quantification (LLOQ), where ±25% was acceptable.
Concentration versus time data is plotted in FIGS. 3-16. All data are expressed as ng/g of the free drug. Samples that were below the limit of quantitation (0.2 ng/mL) were not used in the calculation of averages.

plasma Conc., individual rabbit [1]: 16.0 ng/mL | vitreous humor Conc., individual eyes (OD, OS) [2]: 47700 ng/mL
Structure (SMILES): COC(=O)N[C@@H](Cc1ccccc1)C(=O)N[C@@H](Cc1ccc(NS(=O)(=O)O)cc1)c1csc(-c2cccs2)n1 [Compound 1 free acid]
